Results deposited as PubChem BioAssay AID743121 (NCATS, 2013).
Screen: 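Knock-downs that sensitise breast cancer cells to camptothecin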 (primary screen). Cells: MDA-MB-231 cells, a human breast cancer line. Knock-down reagent: single siRNA against human genes, 20 nM siRNA (0.8 pmol per well). Duration: 120 h (drug added 48 h after transfection, read 72 h later). Challenge: camptothecin 20 nM (about EC30) for 72 h; vehicle 0.1% DMSO in parallel plates. Read-out: 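CellTiter-Glo ATP signal, scaled to control siRNA as percent viability; sensitisation given as log2 of untreated divided by camptothecin-treated viability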. Direction: log2 vehicle/camptothecin viability: higher = stronger sensitisation to camptothecin. Rule for the call: 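Each gene scored by redundant siRNA activity (RSA) over its individual siRNA ratios; a gene is called active at p < 0.001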.
In all, the deposit lists about 26,000 reagents; below is a part drawn at random. Over the whole deposit, 167 (0.63%) are marked active. 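Calls are per gene from RSA p-values that are not deposited; an individual active-marked siRNA can sensitise only weakly.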 The numbers tell different reagents against one gene apart. Not all columns of the deposit are shown.

gene knocked down | siRNA no. | log2 vehicle/camptothecin viability | Outcome
ITGB5 (integrin subunit beta 5) | 1 | -0.372 | inactive
ITGB5 (integrin subunit beta 5) | 2 | -0.192 | inactive
ITGB5 (integrin subunit beta 5) | 3 | 0.163 | inactive
ITGB5 (integrin subunit beta 5) | 4 | -0.524 | inactive
SMOX (spermine oxidase) | 1 | -0.461 | inactive
SMOX (spermine oxidase) | 2 | -0.346 | inactive
SMOX (spermine oxidase) | 3 | -0.173 | inactive
SMOX (spermine oxidase) | 4 | -0.187 | inactive
CYP11B2 (cytochrome P450 family 11 subfamily B member 2) | 1 | -0.65 | inactive
CYP11B2 (cytochrome P450 family 11 subfamily B member 2) | 2 | -0.0234 | inactive
CYP11B2 (cytochrome P450 family 11 subfamily B member 2) | 3 | -0.229 | inactive
CYP11B2 (cytochrome P450 family 11 subfamily B member 2) | 4 | -0.334 | inactive
ROCK1 (Rho associated coiled-coil containing protein kinase 1) | 1 | -0.275 | inactive
ROCK1 (Rho associated coiled-coil containing protein kinase 1) | 2 | -0.277 | inactive
ROCK1 (Rho associated coiled-coil containing protein kinase 1) | 3 | -0.043 | inactive
ROCK1 (Rho associated coiled-coil containing protein kinase 1) | 4 | -0.0116 | inactive
PROSER1 (proline and serine rich 1) | 1 | -0.283 | inactive
PROSER1 (proline and serine rich 1) | 2 | -0.066 | inactive
PROSER1 (proline and serine rich 1) | 3 | -0.173 | inactive
PROSER1 (proline and serine rich 1) | 4 | -0.222 | inactive
IL17RC (interleukin 17 receptor C) | 1 | -0.0539 | inactive
IL17RC (interleukin 17 receptor C) | 2 | -0.18 | inactive
IL17RC (interleukin 17 receptor C) | 3 | 0.347 | inactive
IL17RC (interleukin 17 receptor C) | 4 | 0.709 | inactive
CIDEC (cell death inducing DFFA like effector c) | 1 | -0.333 | inactive
CIDEC (cell death inducing DFFA like effector c) | 2 | -0.147 | inactive
CIDEC (cell death inducing DFFA like effector c) | 3 | -0.277 | inactive
CIDEC (cell death inducing DFFA like effector c) | 4 | 1.22 | inactive
